Assay results from patent publication US20120058906A1.
Results are given in words; binding and its absence hold for the method and conditions named. Some binding calls cover weakened binding; strength is not graded here.

By UniProt entry, the sequences of proteins in these tests, tags left out. Where a name states a change or a piece, a line headed by the entry shows the natural chain unless it says otherwise.
UniProt Q9NR61: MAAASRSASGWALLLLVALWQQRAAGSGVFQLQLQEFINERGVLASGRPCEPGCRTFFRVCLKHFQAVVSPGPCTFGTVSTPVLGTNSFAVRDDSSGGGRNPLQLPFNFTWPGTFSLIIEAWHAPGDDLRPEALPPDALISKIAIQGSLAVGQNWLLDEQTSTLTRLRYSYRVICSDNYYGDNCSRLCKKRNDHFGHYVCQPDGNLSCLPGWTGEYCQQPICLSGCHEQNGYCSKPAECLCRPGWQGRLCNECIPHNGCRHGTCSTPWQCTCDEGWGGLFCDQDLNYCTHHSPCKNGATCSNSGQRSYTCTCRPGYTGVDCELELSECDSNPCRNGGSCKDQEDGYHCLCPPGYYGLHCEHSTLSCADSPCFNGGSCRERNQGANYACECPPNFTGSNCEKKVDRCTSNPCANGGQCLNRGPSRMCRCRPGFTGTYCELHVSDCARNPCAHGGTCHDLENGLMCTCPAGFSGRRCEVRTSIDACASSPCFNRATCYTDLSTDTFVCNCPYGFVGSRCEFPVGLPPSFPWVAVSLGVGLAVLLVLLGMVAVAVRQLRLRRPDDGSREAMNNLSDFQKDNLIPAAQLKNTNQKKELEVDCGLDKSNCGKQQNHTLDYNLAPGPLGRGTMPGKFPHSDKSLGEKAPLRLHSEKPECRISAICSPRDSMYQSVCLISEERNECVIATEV

Experiments:
[1] = target: Recombinant Human DLL4 (R&D Systems Cat#1506-D4/CF) (human) (UniProt Q9NR61); test: MSD ECL screen of 960 Fab library; hit = signal/blank > 4
[2] = target: Recombinant Human DLL4 (R&D Systems Cat#1506-D4/CF) (human) (UniProt Q9NR61); test: ECL (MSD) Fab titration; binding affinity estimated from the 50% binding signal
[3] = target: Recombinant Human DLL4 (R&D Systems Cat#1506-D4/CF) (human) (UniProt Q9NR61); test: ECL (MSD) multi-spot binding screen, 960 member Fab library; hit = signal to blank ratio greater than 4

Measured: binding

B1: Fab VH6-1_IGHD3-3*01_IGHJ4*01 & V4-3_IGLJ4*01 (Fab, V domains shown)
VH: QVQLQQSGPGLVKPSQTLSLTCAISGDSVSSNSAAWNWIRQSPSRGLEWLGRTYYRSKWYNDYAVSVKSRITINPDTSKNQFSLQLNSVTPEDTAVYYCAREYYDFWSGYYTDYFDYWGQGTLVTVSS
VL: QPVLTQPTSLSASPGASARLTCTLRSGINLGSYRIFWYQQKPESPPRYLLSYYSDSSKHQGSGVPSRFSGSKDASSNAGILVISGLQSEDEADYYCMIWHSSASFVFGGGTQLIIL
binds: all assays above
